Reference: PMC9751115
These are yes or no findings as the source states them, for the method shown. Binding seen in cells or lysates may run through a third protein. Some binding calls cover weakened binding; strength is not graded here.

By UniProt entry, the sequences of proteins in these tests, tags left out. Where a name states a change or a piece, a line headed by the entry shows the natural chain unless it says otherwise. Chains listed by the source or under a name are the forms on record and can include a tag or linker. Residues count along the entry.
UniProt P61586: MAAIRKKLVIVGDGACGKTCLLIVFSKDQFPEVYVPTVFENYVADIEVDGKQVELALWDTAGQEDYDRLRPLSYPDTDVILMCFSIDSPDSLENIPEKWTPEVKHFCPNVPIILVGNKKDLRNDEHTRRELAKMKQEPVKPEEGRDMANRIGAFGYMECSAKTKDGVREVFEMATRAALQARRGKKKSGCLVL
HA-tagged active RhoA (HA-L63RhoA), expressed in 1321N1 astrocytoma cells (P61586, form named): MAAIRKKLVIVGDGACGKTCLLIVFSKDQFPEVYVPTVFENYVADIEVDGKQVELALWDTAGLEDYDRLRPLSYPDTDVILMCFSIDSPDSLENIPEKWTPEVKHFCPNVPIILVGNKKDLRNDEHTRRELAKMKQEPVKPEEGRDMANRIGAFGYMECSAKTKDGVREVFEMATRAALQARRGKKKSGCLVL
UniProt Q9BXM7, residues 78-581: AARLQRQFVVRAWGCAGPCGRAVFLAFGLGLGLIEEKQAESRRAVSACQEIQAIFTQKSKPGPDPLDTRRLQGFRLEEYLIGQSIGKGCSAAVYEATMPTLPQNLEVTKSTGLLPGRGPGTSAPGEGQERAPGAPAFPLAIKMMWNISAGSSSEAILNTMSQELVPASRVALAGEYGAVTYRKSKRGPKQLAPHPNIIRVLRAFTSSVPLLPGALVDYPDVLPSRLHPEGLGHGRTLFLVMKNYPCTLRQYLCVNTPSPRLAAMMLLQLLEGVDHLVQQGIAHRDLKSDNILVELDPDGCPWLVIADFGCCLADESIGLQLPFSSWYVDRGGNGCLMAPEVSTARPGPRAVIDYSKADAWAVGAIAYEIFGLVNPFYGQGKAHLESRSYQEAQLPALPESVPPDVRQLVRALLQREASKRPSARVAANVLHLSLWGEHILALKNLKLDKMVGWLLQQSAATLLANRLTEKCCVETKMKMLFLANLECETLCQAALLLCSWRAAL

Biological target: HA-tagged active RhoA (HA-L63RhoA), expressed in 1321N1 astrocytoma cells (UniProt P61586)
Assay: co-IP; mitochondrial fractions of 1321N1 astrocytoma cells infected with GFP or RhoA adenovirus; RhoA immunoprecipitated; WB for RhoA and endogenous PINK1

binding: binds
Substance: endogenous PINK1 of 1321N1 human astrocytoma cells (from UniProt Q9BXM7 78-581)
